Experimental data as given in PubChem BioAssay AID2099 (Broad Institute, 2009).
Among all 330,000 compounds or so, about 230 (0.07%) were called active. Listed are the inconclusive results; actives and inactives stand elsewhere.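 Rule for the calls: active = more than half of a compound's replicate wells show inhibition beyond 50%, single wells judged on their own value; inconclusive = some, but no more than half, of replicates pass 50% inhibition; inactive = no replicate passes 50% inhibition.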

Sequences of proteins named here, by UniProt entry; tags and fusion partners are left off. Residues count along the entry.
UniProt Q9H3R0, 1-420 limits assumed: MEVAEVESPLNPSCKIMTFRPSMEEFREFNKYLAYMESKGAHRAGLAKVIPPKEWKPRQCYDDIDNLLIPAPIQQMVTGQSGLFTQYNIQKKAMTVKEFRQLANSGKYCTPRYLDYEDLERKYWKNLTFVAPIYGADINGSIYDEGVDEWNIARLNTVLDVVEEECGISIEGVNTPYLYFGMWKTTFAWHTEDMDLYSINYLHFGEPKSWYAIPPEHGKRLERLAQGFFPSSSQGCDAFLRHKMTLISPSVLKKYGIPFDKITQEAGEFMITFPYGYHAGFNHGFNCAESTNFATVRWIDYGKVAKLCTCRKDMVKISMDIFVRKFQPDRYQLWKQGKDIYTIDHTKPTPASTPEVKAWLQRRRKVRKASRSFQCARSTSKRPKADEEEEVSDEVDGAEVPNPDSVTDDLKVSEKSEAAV

What follows are compounds tested against Lysine-specific demethylase 4C (Homo sapiens) (UniProt Q9H3R0) (assay: JMJD2C H3K9me3 demethylation blockers – biochemical, fluorescence, DELFIA europium, primary screen (AID 2099;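 note: signal counts dimethyl H3K9 product captured on neutravidin plate; 0% = median of DMSO wells and 100% = 0.3 times that DMSO median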)). Details: GST-JMJD2C(1-420) H3K9me3 demethylation, at 2.35 µM, stronger effect = higher value.

Row | SMILES | inhibition
1 | O=C(NCC1(N2CCCCC2)CCCCC1)c1ccc(Cl)nc1 | inconclusive: -203%
